Residue numbers refer to the chain shown, from its start. These are yes or no findings as the source states them, for the method shown. In cells and extracts the contact can be indirect. Some results given as binding are weak or reduced against the parent protein; the word gives no strength.
Experiments:
[1] = molecular target: T1, FSTL1 wildtype (follistatin like 1) (UniProt Q62356); assay: co-IP
T1 sequence: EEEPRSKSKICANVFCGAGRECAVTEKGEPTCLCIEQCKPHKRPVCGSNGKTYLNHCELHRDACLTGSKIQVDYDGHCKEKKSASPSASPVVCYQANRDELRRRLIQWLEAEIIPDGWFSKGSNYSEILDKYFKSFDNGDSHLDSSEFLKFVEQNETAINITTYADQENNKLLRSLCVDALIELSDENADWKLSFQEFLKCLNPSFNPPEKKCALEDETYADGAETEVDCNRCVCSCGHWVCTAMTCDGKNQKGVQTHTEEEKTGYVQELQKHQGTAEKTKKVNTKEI

Sequences of proteins named here, by UniProt entry; tags and fusion partners are left off. Residues count along the entry.
UniProt P48614, residues 29-389: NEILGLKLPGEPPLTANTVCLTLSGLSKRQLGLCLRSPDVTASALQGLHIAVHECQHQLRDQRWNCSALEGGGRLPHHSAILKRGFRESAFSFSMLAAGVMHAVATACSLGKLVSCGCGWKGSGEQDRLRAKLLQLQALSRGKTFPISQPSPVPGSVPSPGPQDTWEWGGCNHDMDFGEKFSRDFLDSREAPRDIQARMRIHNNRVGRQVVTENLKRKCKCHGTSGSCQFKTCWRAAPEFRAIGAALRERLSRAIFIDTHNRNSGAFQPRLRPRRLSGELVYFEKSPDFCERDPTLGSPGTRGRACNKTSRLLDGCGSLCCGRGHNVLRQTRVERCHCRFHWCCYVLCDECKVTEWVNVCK

[2] = molecular target: T2, FSTL1 glycosylation-mutant (MT: N142/173/178Q) (UniProt Q62356); assay: co-IP
T2 sequence: T1 sequence with N124Q, N155Q, N160Q

binding [1]: binds | binding [2]: binds
Substance: WNT10B (from UniProt P48614 29-389)

From publication doi:10.1101/2020.05.14.096990
